Some of these results come from one statement about several compounds together. Some compounds share one range, which may span the group rather than tell each member. No end group written: not given here.
target: T1, hK2 (Homo sapiens, UniProt P20151); assay: Effect of the peptides on the enzyme activity of hK2 (chromogenic substrate S-2302); format: biochemical; settings: 0.17 μM hK2, 1000-fold molar excess of peptide
T1 construct: made in house
Procedure: “Inhibition”, as used in the present context, stands for an inhibitory action on the proteolytic activity of hK2.
The effect of the peptides on the enzyme activity of hK2 was studied by using the chromogenic substrate S-2302 (H-D-Pro-Phe-Arg-pNA). HK2 (0.17 μM) was incubated with a 100-1000-fold molar excess of synthetic peptides in 20 mM Tris-buffer pH 8.0 containing 0.1% BSA for 30 minutes at room temperature. After addition of the substrate to a final concentration of 0.2 mM the absorbance was monitored at 405 nm at 5-10 min intervals for 1 h on a Victor 1420 Multilabel fluorometer (PerkinElmer-Wallac, Turku, Finland)

Chains of the proteins cited; added tags and fusions are not shown. Residues count along the entry.
UniProt P20151, 25-261: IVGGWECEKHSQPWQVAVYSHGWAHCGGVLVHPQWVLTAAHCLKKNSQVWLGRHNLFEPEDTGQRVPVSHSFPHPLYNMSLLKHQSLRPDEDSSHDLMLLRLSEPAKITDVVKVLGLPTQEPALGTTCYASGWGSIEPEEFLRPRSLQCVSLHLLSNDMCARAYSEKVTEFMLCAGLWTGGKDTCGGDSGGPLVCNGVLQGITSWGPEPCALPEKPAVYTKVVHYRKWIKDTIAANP

Inhibition of hK2 enzyme activity, 70-80%:
AARRPFPAPS [HK2p02]
PARRPFPVTA [HK2p03]
SRFKVWWAAG-OH [HK2p01, SRFKVWWAAG]
